Data source: PubChem BioAssay AID504804 (Drosophila RNAi Screening Center, 2011)

Assay: 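Fly genes whose loss lessens doxorubicin-driven cell death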 (primary screen)
System: Drosophila Kc cells
Knock-down reagent: long dsRNA against Drosophila genes, 0.5 µg dsRNA per well
Timing: 96 h (48 h knock-down, then 48 h drug)
Challenge: doxorubicin 5 µg/ml for 48 h, added 48 h after dsRNA
Detection: 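Luminescent ATP counts per replicate, not normalised, reflecting viable cells after 48 h dsRNA knock-down followed by 48 h of 5 µg/ml doxorubicin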
Reading the numbers: raw ATP luminescence: higher = more viable cells, protection from doxorubicin
Rule for the call: 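Active when both duplicate wells lie at least 2 SD above the plate mean and protection is confirmed by rescreening and independent dsRNAs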
In all, the deposit lists about 19,000 reagents; shown is an unselected part of those with a known target gene and a result. Of all reagents, 47 (0.25%) are marked active. 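Signals are raw, not normalised; exact z-scores behind calls not deposited; actives needed confirmation, so some wells reaching 2 SD are inactive.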 Unmarked entries are inactive. The numbers tell different reagents against one gene apart. A plus sign joins genes that one reagent is predicted to hit.

| gene | reagent no. | raw ATP luminescence, replicate 1 | raw ATP luminescence, replicate 2 |
| --- | --- | --- | --- |
| CG12129 | 1 | 69447 | 50923 |
| CG9586 | 1 | 39540 | 89847 |
| Sodh2 | 1 | 42657 | 35087 |
| tapas | 1 | 61367 | 69477 |
| CG14624 | 1 | 41880 | 38260 |
| org-1 | 1 | 9580 | 10300 |
| RpL3 + CG6693 | 1 | 51467 | 36267 |
| Hyccin | 1 | 58903 | 66023 |
| RecQ5 | 1 | 19393 | 21933 |
| CG4575 (retired record) | 1 | 37510 | 50050 |
| COX3 (retired record) | 1 | 3.07e5 | 2.92e5 |
| CG4650 | 1 | 55260 | 59037 |
| GstO1 | 1 | 75183 | 85343 |
| squ | 1 | 2.86e5 | 2.80e5 |
| Unc-115b + p24-2 | 1 | 51490 | 21500 |
| CG13733 | 1 | 67620 | 49810 |
| Gas41 | 1 | 89330 | 53913 |
| Mat1 | 1 | 31967 | 70343 |
| CG42369 | 1 | 24417 | 31423 |
| Rich | 1 | 31723 | 28090 |
| AlkB | 1 | 2.02e5 | 2.56e5 |
| Sys1 | 1 | 64293 | 70657 |
| mars | 1 | 55027 | 45143 |
| eIF1A | 1 | 65750 | 79040 |
| RpL37-1 | 1 | 3.04e5 | 3.35e5 |
| COX7C | 1 | 64637 | 65600 |
| Eo | 1 | 2.99e5 | 2.15e5 |
| Dora | 1 | 2.83e5 | 2.41e5 |
| Dora | 2 | 3.62e5 | 2.80e5 |
| Dora | 3 | 3.48e5 | 2.95e5 |
| Dora | 4 | 2.72e5 | 2.18e5 |
| Vmat + CG13330 | 1 | 56747 | 57107 |
| caz | 1 | 1.73e5 | 1.76e5 |
| Pten | 1 | 49697 | 68853 |
| Fitm | 1 | 40177 | 40063 |
| CG31730 | 1 | 3.02e5 | 3.05e5 |
| CG18234 | 1 | 99887 | 41947 |
| Fer3 | 1 | 45157 | 27023 |
| CG33467 | 1 | 1.01e5 | 98093 |
| CG42342 | 1 | 1.81e5 | 1.73e5 |
| CG42342 | 2 | 27670 | 26543 |
| CG42342 | 3 | 1.07e5 | 84180 |
| CG42342 | 4 | 1.01e5 | 77790 |
| CG42342 | 5 | 92720 | 51370 |
| Zip42C.2 | 1 | 34730 | 66930 |
| CG14219 | 1 | 3.22e5 | 3.22e5 |
| CG17929 | 1 | 96110 | 77030 |
| Vps53 | 1 | 1.21e5 | 73837 |
| Hsc70-1 | 1 | 63833 | 53017 |
| CG5412 | 1 | 39950 | 50927 |
| inaE | 1 | 2.02e5 | 2.34e5 |
| inaE | 2 | 2.63e5 | 3.51e5 |
| inaE | 3 | 2.79e5 | 3.20e5 |
| Klc | 1 | 36120 | 33907 |
| GlyT | 1 | 54447 | 48893 |
| Dnz1 | 1 | 88977 | 69283 |
| MED14 | 1 | 43560 | 69477 |
| Dnali1 | 1 | 52180 | 28937 |
| spag4 | 1 | 41240 | 55117 |
| Snx21 | 1 | 1.17e5 | 87860 |
| EMC3 | 1 | 36713 | 51453 |
| CG33158 | 1 | 1.91e5 | 2.18e5 |
| CG33158 | 2 | 62623 | 52493 |
| CG33158 | 3 | 62737 | 70387 |
| eEF1alpha2 | 1 | 2.82e5 | 2.74e5 |
| eEF1alpha2 | 2 | 39710 | 38960 |
| CG32683 | 1 | 3.08e5 | 2.58e5 |
| CG32683 | 2 | 2.79e5 | 2.52e5 |
| CG32683 | 3 | 3.27e5 | 2.95e5 |
| stumps | 1 | 1.75e5 | 1.79e5 |
| stumps | 2 | 48300 | 42990 |
| stumps | 3 | 87780 | 38550 |
| CG13008 | 1 | 3.67e5 | 3.43e5 |
| CG13008 | 2 | 3.56e5 | 3.35e5 |
| Osi24 | 1 | 71220 | 70040 |
| sbr | 1 | 2.32e5 | 2.97e5 |
| sbr | 2 | 1.94e5 | 1.94e5 |
| CG6985 | 1 | 61167 | 47390 |
| CG42634 + CG42635 | 1 | 44340 | 54113 |
| Cda5 | 1 | 2.68e5 | 3.08e5 |
| Dhod | 1 | 60277 | 30567 |
| CG15375 | 1 | 25310 | 44510 |
| CG14459 | 1 | 21793 | 23600 |
| slmo + CG34179 | 1 | 94370 | 47997 |

Quoted from above, 13 entries:
| gene | reagent no. | raw ATP luminescence, replicate 1 | raw ATP luminescence, replicate 2 |
| --- | --- | --- | --- |
| Mat1 | 1 | 31967 | 70343 |
| CG42369 | 1 | 24417 | 31423 |
| Rich | 1 | 31723 | 28090 |
| AlkB | 1 | 2.02e5 | 2.56e5 |
| Sys1 | 1 | 64293 | 70657 |
| mars | 1 | 55027 | 45143 |
| eIF1A | 1 | 65750 | 79040 |
| RpL37-1 | 1 | 3.04e5 | 3.35e5 |
| COX7C | 1 | 64637 | 65600 |
| Eo | 1 | 2.99e5 | 2.15e5 |
| Dora | 1 | 2.83e5 | 2.41e5 |
| Dora | 2 | 3.62e5 | 2.80e5 |
| Dora | 3 | 3.48e5 | 2.95e5 |
